No constants are given. Whether binding was seen depends on the method and setting. Binding seen in cells or lysates may run through a third protein. Some binding calls cover weakened binding; strength is not graded here.
Biological target: Flag-GFP-UCH37(C88A) (UniProt Q9Y5K5)
Test: co-IP; anti-Flag agarose, 4 °C overnight, low salt lysis buffer (20 mM HEPES pH 7.9, 50 mM NaCl, 10 mM KCl, 1.5 mM MgCl2, 10 % glycerol, 0.5 % Triton X-100, 10 mM iodoacetamide); HCT116 cells expressing Flag-GFP-UCH37, with or without 0.2 M sucrose for 30 min; immunoblot

Chains of the proteins cited; added tags and fusions are not shown. Lines headed by an entry give the natural chain unless they say otherwise; changes in a name come on top.
UniProt Q9Y5K5: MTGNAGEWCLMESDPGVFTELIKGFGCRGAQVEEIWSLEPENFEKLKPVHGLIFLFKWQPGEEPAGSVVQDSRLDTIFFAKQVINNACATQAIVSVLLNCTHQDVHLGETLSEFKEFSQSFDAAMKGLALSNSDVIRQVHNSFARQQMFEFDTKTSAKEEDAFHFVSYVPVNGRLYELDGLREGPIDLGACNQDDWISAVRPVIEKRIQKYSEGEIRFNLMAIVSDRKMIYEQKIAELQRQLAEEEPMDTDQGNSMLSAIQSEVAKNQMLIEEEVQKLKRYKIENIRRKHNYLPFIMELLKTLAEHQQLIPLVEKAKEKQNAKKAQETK
UniProt P54727: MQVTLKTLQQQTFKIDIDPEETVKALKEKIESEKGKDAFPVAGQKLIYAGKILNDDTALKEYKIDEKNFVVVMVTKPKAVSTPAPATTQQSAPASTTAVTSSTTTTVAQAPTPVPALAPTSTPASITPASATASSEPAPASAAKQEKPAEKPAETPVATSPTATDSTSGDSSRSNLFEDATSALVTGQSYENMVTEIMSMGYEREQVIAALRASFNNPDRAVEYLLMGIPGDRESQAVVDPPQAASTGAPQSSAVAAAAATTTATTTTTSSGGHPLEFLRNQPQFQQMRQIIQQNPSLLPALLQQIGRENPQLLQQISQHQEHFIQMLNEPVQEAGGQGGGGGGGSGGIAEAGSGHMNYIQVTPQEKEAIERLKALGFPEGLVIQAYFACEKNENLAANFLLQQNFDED

Question: Which binding does the source give for “RAD23B (endogenous) (from UniProt P54727 1-409)” here?
Answer: binds
